Results taken from PMC7046284.
These are yes or no findings as the source states them, for the method shown. In cells and extracts the contact can be indirect. Some results given as binding are weak or reduced against the parent protein; the word gives no strength. Sequences can lack the tags named with a protein.

The chains behind the UniProt entries cited, without tags or fusion partners. Where a name states a change or a piece, a line headed by the entry shows the natural chain unless it says otherwise.
UniProt Q96AZ6: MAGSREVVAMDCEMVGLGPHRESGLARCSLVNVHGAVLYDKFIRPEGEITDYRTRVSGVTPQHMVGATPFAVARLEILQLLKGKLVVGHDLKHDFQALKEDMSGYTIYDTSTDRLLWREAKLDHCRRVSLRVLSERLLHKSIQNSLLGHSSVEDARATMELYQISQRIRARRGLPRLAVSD

Experiments:
[1] = target: T1, FLAG-YTHDF2 (YTH-domain family 2) (UniProt Q9Y5A9); test: co-IP; FLAG-YTHDF2 and HA-ISG20^D94G co-transfected into HepG2 cells, with or without HBV-WT plasmid, with or without IFN-α (2000 IU/ml, 24h); IP with FLAG antibody, blot with FLAG and HA antibody; lysis buffer 20 mM Tris HCl pH 8.0, 137 mM NaCl, 1% NP-40, 2 mM EDTA; 4°C overnight
T1 sequence: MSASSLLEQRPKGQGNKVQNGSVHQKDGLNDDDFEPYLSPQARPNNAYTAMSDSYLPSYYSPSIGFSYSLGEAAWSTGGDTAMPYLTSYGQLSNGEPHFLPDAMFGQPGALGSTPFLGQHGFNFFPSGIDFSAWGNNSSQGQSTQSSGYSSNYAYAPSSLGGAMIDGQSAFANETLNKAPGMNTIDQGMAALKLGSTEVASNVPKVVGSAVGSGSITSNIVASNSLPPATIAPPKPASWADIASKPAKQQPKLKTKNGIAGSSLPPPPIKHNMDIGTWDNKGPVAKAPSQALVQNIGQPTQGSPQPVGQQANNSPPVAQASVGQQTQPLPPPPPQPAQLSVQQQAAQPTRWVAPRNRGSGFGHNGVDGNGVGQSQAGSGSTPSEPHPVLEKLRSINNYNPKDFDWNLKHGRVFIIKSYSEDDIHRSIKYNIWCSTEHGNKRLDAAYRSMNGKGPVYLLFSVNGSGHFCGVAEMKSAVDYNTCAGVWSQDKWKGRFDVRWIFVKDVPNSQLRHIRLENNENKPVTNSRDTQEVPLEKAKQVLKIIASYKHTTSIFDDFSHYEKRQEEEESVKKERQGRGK

[2] = target: T1, FLAG-YTHDF2 (YTH-domain family 2); test: co-IP; FLAG-YTHDF2 co-transfected with HBV-WT, HBV-M1, HBV-M2 or HBV-M3 into HepG2 cells, IFN-α (2000 IU/ml, 24h) to induce endogenous ISG20; IP with FLAG antibody, blot with FLAG and ISG20 antibody

| binding [1] | binding [2] | Substance |
| --- | --- | --- |
| binds | – | HA-ISG20^D94G (from UniProt Q96AZ6 1-181) (enzyme) |
| – | binds | endogenous ISG20 (IFN-α induced) (from UniProt Q96AZ6 1-181) (enzyme) |
